Article PMC4647846
No constants are given. Whether binding was seen depends on the method and setting.

The chains behind the UniProt entries cited, without tags or fusion partners. Residues count along the entry.
UniProt Q9Y6U3, residues 1-365: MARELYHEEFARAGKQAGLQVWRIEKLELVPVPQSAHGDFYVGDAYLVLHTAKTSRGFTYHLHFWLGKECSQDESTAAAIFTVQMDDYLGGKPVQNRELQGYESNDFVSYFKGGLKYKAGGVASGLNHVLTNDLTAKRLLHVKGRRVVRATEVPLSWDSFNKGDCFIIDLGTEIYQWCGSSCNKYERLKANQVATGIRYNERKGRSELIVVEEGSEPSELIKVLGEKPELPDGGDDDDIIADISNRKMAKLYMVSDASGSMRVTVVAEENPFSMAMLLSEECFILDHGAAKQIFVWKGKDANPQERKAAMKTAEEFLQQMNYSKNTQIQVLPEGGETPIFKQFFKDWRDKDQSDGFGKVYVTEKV

Molecular target: N-terminal half of adseverin (A1–A3, residues 1–365) (UniProt Q9Y6U3)
Test: SAXS; A1–A3 at 1, 2, 4 and 8 mg/ml in 20 mM Tris-HCl pH 7.2, 150 mM NaCl, with 2 or 10 mM EGTA or free Ca2+ from 19 nM to 50 mM, 20 °C; molecular weight estimated from scattering; both purified

“N-terminal half of adseverin (A1–A3, residues 1–365) (from UniProt Q9Y6U3 1-365) (domain or fragment)” was tested, and the binding was “no binding (tested: 8 mg ml^−1)”.
